According to PubChem BioAssay AID256 (DTP/NCI, 2004):
The list is a part of this screen's results and no random one: it is rich in T/C values a quarter to a half above the control, in often repeated tests (any T/C) and in doses without a T/C. Further doses and runs are listed elsewhere. T/C: endpoint of the treated group in % of that of the vehicle group. Some doses have a count of surviving animals in place of a T/C: the source holds a T/C of zero for them, seemingly a mark for toxic or unscored doses. Some doses without a T/C left all or most animals alive at the check, yet need not have been tolerated: survival well below the control is almost never listed, so the zero probably covers shortened survival too. Survivors were counted at the toxicity check, usually on the fifth day, unless a day is given; later deaths do not show. Schedule codes are those of the source, taken here to give the interval after Q, in days (D) or hours (H), and the number of doses after X. Some molecules as drawn cover several salts, stereoisomers or complexes of the source; a dose is that of the sample tested. Some entries hold several experiments; their values stand side by side, smallest first. For survival time, the PubChem record calls one and a half times the control and up active, and a quarter to a half above the control has no call in these data; cut-offs in other NCI protocols can differ. Some T/C values carry the count of animals alive at the toxicity check (mostly the fifth day); without a count, all were alive then. Some schedules carry Z or #; the key to these is not given.

Tested on: CD2F1 mice, L1210 leukemia ip, survival T/C
Test: NCI In Vivo Anticancer Drug Screen. Data for tumor model L1210 Leukemia (intraperitoneal) in CD2F1 (CDF1) mice
Conditions: higher T/C = longer survival
Method in brief: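 Activity against a transplanted murine tumor was judged by comparing the compound group with a vehicle group. The outcome in the treated animals was divided by that in the controls.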

[1] = T/C endpoint: mean survival time, dose: 10.0 mg/kg/injection, schedule: Q01DX009 (ip), vehicle: saline
[2] = T/C endpoint: mean survival time, dose: 6.25 mg/kg/injection, schedule: Q01DX009 (ip), vehicle: saline with Tween-80
[3] = T/C endpoint: mean survival time, dose: 25.0 mg/kg/injection, schedule: Q01DX009 (ip), vehicle: saline with Tween-80
[4] = T/C endpoint: mean survival time, dose: 50.0 mg/kg/injection, schedule: Q01DX009 (ip), vehicle: saline with Tween-80
[5] = T/C endpoint: mean survival time, dose: 100.0 mg/kg/injection, schedule: Q01DX009 (ip), vehicle: saline with Tween-80
[6] = T/C endpoint: mean survival time, dose: 200.0 mg/kg/injection, schedule: Q01DX009 (ip), vehicle: saline with Tween-80
[7] = T/C endpoint: mean survival time, dose: 400.0 mg/kg/injection, schedule: Q04DX003 (ip), vehicle: saline
[8] = T/C endpoint: mean survival time, dose: 400.0 mg/kg/injection, schedule: Q04DX003 (ip), vehicle: saline with Tween-80
[9] = T/C endpoint: mean survival time, dose: 400.0 mg/kg/injection, schedule: Q01DX009 (ip), vehicle: saline with Tween-80

## C[C@@H]1C[C@@H]([C@H](O)CC2CC(=O)NC(=O)C2)C(=O)[C@@H](C)C1
[1]
  T/C: 94, 105, 113, 117 % of control
  survivor count: 3 of 6
T/C endpoint: mean survival time, dose: 20.0 mg/kg/injection, schedule: Q01DX009 (ip), vehicle: saline
  T/C: 97, 108, 116, 118, 121 % of control
T/C endpoint: mean survival time, dose: 40.0 mg/kg/injection, schedule: Q01DX009 (ip), vehicle: saline
  T/C: 108, 118, 124 [5 of 6 alive], 132 [5 of 6 alive], 145 % of control
T/C endpoint: mean survival time, dose: 80.0 mg/kg/injection, schedule: Q01DX009 (ip), vehicle: saline
  T/C: 135 % of control
T/C endpoint: mean survival time, dose: 160.0 mg/kg/injection, schedule: Q01DX009 (ip), vehicle: saline
  survivor count: 0 of 6
T/C endpoint: median survival time, dose: 50.0 mg/kg/injection, schedule: Q01DX009 (ip), vehicle: saline
  T/C: 131 and 132 % of control
T/C endpoint: median survival time, dose: 100.0 mg/kg/injection, schedule: Q01DX009 (ip), vehicle: saline
  T/C: 139 and 145 % of control
T/C endpoint: median survival time, dose: 200.0 mg/kg/injection, schedule: Q01DX009 (ip), vehicle: saline
  survivor count: 0 of 6

## O=S(=O)(CCl)OCCCl
[2]
  T/C: 137 % of control [5 of 6 alive]
[3]
  T/C: 129 % of control
[4]
  survivor count: 2 of 6
[5]
  survivor count: 0 of 6
[6]
  survivor count: 0 of 6
T/C endpoint: median survival time, dose: 50.0 mg/kg/injection, schedule: Q01DX009 (ip), vehicle: saline with Tween-80
  survivor count: 6 of 6
T/C endpoint: median survival time, dose: 100.0 mg/kg/injection, schedule: Q01DX009 (ip), vehicle: saline with Tween-80
  survivor count: 0 of 6
T/C endpoint: median survival time, dose: 200.0 mg/kg/injection, schedule: Q01DX009 (ip), vehicle: saline with Tween-80
  survivor count: 0 of 10 and 0 of 6

## C[n+]1c(-c2cccc(-c3ccccc3)c2)c2cc([N+](=O)[O-])ccc2c2ccccc21
T/C endpoint: mean survival time, dose: 50.0 mg/kg/injection, schedule: Q01DX009 (ip), vehicle: water
  survivor count: 6 of 6
T/C endpoint: mean survival time, dose: 100.0 mg/kg/injection, schedule: Q01DX009 (ip), vehicle: water
  survivor count: 4 of 6
T/C endpoint: mean survival time, dose: 200.0 mg/kg/injection, schedule: Q01DX009 (ip), vehicle: water
  survivor count: 1 of 6
T/C endpoint: mean survival time, dose: 400.0 mg/kg/injection, schedule: Q01DX009 (ip), vehicle: water
  survivor count: 0 of 6

## NC(CCC(=O)c1ccccn1)C(=O)O (centres undefined)
[7]
  survivor count: 0 of 6

## O=C(Nc1ccc(Cl)c(Cl)c1)Nc1cc(Cl)ccc1Sc1ccc(Cl)cc1S(=O)(=O)O
T/C endpoint: mean survival time, dose: 200.0 mg/kg/injection, schedule: Q04DX003 (ip), vehicle: saline with Tween-80
  survivor count: 2 of 6
[8]
  survivor count: 1 of 6

## COc1ccc(NCC(=O)O)c([N+](=O)[O-])c1
[8]
  survivor count: 6 of 6

## CCOc1ccc(/C=C/[N+](=O)[O-])cc1
[9]
  survivor count: 0 of 6

## CCCCCCCCCCCCN(C)C
[5]
  survivor count: 4 of 6
T/C endpoint: mean survival time, dose: 200.0 mg/kg/injection, schedule: Q01DX001 (ip), vehicle: saline
  survivor count: 0 of 6

## CCC(=O)OCC1OC(n2cc(F)c(=O)[nH]c2=O)CC1OC(=O)CC (centres undefined)
T/C endpoint: mean survival time, dose: 89.0 mg/kg/injection, schedule: Q01DX Z (ip), vehicle: saline
  T/C: 139 % of control
T/C endpoint: mean survival time, dose: 133.0 mg/kg/injection, schedule: Q01DX Z (ip), vehicle: saline
  T/C: 136 % of control
T/C endpoint: mean survival time, dose: 200.0 mg/kg/injection, schedule: Q01DX Z (ip), vehicle: saline
  T/C: 136 % of control
T/C endpoint: mean survival time, dose: 300.0 mg/kg/injection, schedule: Q01DX Z (ip), vehicle: saline
  T/C: 145 % of control

## C#CCOC(=O)NCCC
T/C endpoint: mean survival time, dose: 400.0 mg/kg/injection, schedule: Q04DX003 (ip), vehicle: Klucel (hydroxypropylcellulose) (HPC)
  survivor count: 2 of 6

## CCOC12c3c4cccc3Oc3cccc(c31)S(=O)(=O)c1cccc(c12)O4
T/C endpoint: mean survival time, dose: 400.0 mg/kg/injection, schedule: Q01DX001 (ip), vehicle: saline with Tween-80
  survivor count: 6 of 6

## CN(C)CC(=O)N/N=C\c1ccc([N+](=O)[O-])s1
T/C endpoint: mean survival time, dose: 200.0 mg/kg/injection, schedule: Q01DX009 (ip), vehicle: saline
  survivor count: 2 of 6

## CC12C=CC(=O)C=C1CCCC2 (centres undefined)
T/C endpoint: mean survival time, dose: 100.0 mg/kg/injection, schedule: Q04DX002 (ip), vehicle: saline with Tween-80
  survivor count: 1 of 3
T/C endpoint: mean survival time, dose: 200.0 mg/kg/injection, schedule: Q04DX002 (ip), vehicle: saline with Tween-80
  survivor count: 0 of 3
T/C endpoint: mean survival time, dose: 400.0 mg/kg/injection, schedule: Q04DX002 (ip), vehicle: saline with Tween-80
  survivor count: 0 of 3

## COc1ccc(OC)c(NC(=O)OCC(F)(F)F)c1
[6]
  survivor count: 6 of 6

## Cc1ncc2cnccn12
T/C endpoint: mean survival time, dose: 200.0 mg/kg/injection, schedule: Q01DX009 (ip), vehicle: saline sonified
  survivor count: 3 of 6
[7]
  survivor count: 0 of 6

## c1ccc(P(=N[P+](c2ccccc2)(c2ccccc2)c2ccccc2)(c2ccccc2)c2ccccc2)cc1
T/C endpoint: mean survival time, dose: 3.0 mg/kg/injection, schedule: Q01DX009 (ip), vehicle: saline
  survivor count: 2 of 3
[2]
  survivor count: 0 of 3
T/C endpoint: mean survival time, dose: 12.5 mg/kg/injection, schedule: Q01DX009 (ip), vehicle: saline with Tween-80
  survivor count: 0 of 3
[3]
  survivor count: 0 of 3
T/C endpoint: mean survival time, dose: 25.0 mg/kg/injection, schedule: Q04DX002 (ip), vehicle: saline with Tween-80
  survivor count: 1 of 3
[4]
  survivor count: 0 of 3
T/C endpoint: mean survival time, dose: 50.0 mg/kg/injection, schedule: Q04DX002 (ip), vehicle: saline with Tween-80
  survivor count: 1 of 3

## COC1OCC(N=[N+]=[N-])C(OS(C)(=O)=O)C1OS(C)(=O)=O (centres undefined)
[6]
  survivor count: 3 of 6

## CN(Cc1cnc2nc(N)nc(N)c2n1)c1ccc(C(=O)NC(CCC(=O)NC(CCC(=O)NC(CCC(=O)NC(CCC(=O)O)C(=O)O)C(=O)O)C(=O)O)C(=O)O)cc1 (centres undefined)
T/C endpoint: mean survival time, dose: 2.0 mg/kg/injection, schedule: Q01DX005 (ip), vehicle: sodium bicarbonate
  T/C: 127 % of control
T/C endpoint: mean survival time, dose: 4.0 mg/kg/injection, schedule: Q01DX005 (ip), vehicle: sodium bicarbonate
  T/C: 132 and 132 % of control [5 of 6 alive]
T/C endpoint: mean survival time, dose: 8.0 mg/kg/injection, schedule: Q01DX005 (ip), vehicle: sodium bicarbonate
  T/C: 141 and 144 % of control
T/C endpoint: mean survival time, dose: 16.0 mg/kg/injection, schedule: Q01DX005 (ip), vehicle: sodium bicarbonate
  T/C: 149 % of control
T/C endpoint: mean survival time, dose: 32.0 mg/kg/injection, schedule: Q01DX005 (ip), vehicle: sodium bicarbonate
  survivor count: 4 of 6

## CC(C)N(C(C)C)S(=O)(=O)c1ccccc1C(O)(c1ccccc1)c1ccccc1
[6]
  survivor count: 6 of 6
[9]
  survivor count: 6 of 6

## COc1ccc2c(c1)CCc1cnn(C3OC(COC(C)=O)C(OC(C)=O)C(OC(C)=O)C3OC(C)=O)c1-2 (centres undefined)
T/C endpoint: mean survival time, dose: 100.0 mg/kg/injection, schedule: Q01DX005 (ip), vehicle: other
  survivor count: 6 of 6
T/C endpoint: mean survival time, dose: 200.0 mg/kg/injection, schedule: Q01DX005 (ip), vehicle: other
  survivor count: 5 of 6

## CCCCC(O)CCCCCCCCCC(=O)O (centres undefined)
[8]
  survivor count: 6 of 6
